No constants are given. Whether binding was seen depends on the method and setting. In cells and extracts the contact can be indirect. Here binding means that the protein was enriched with, or labelled near, the bait; the list need not be complete. Tags and fused reporters may be left off the sequences shown.
T1: Thioredoxin domain-containing protein 11 (TXNDC11) (human (endogenous; cell line of the immunoprecipitation not named)) (UniProt Q6PKC3)
T1 sequence: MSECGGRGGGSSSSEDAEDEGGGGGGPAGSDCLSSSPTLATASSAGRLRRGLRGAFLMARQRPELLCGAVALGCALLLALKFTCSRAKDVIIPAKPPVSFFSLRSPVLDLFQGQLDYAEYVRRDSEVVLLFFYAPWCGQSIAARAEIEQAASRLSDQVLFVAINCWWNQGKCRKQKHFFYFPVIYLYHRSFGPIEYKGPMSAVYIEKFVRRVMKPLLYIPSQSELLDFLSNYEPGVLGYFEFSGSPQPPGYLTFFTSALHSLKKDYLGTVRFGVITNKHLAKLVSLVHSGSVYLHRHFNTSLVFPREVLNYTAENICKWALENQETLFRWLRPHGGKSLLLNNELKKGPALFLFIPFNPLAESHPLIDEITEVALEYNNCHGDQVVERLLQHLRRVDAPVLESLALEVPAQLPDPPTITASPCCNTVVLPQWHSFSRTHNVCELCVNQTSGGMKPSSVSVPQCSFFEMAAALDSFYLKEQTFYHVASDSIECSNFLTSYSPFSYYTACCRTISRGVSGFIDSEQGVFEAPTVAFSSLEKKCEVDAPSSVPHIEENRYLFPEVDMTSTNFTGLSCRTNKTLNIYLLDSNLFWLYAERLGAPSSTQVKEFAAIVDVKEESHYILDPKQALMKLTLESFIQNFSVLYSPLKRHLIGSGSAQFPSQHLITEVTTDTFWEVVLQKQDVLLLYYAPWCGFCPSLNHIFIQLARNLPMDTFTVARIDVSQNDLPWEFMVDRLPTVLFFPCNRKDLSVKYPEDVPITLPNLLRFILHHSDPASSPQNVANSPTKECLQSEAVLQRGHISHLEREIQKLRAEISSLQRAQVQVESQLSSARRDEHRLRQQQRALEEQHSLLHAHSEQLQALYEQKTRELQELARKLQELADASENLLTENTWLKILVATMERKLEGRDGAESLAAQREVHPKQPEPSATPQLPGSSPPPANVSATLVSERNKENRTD

Protein sequences, listed by entry. Tags and fused reporters are not part of them. Residues count along the entry.
UniProt P14314, residues 15-528: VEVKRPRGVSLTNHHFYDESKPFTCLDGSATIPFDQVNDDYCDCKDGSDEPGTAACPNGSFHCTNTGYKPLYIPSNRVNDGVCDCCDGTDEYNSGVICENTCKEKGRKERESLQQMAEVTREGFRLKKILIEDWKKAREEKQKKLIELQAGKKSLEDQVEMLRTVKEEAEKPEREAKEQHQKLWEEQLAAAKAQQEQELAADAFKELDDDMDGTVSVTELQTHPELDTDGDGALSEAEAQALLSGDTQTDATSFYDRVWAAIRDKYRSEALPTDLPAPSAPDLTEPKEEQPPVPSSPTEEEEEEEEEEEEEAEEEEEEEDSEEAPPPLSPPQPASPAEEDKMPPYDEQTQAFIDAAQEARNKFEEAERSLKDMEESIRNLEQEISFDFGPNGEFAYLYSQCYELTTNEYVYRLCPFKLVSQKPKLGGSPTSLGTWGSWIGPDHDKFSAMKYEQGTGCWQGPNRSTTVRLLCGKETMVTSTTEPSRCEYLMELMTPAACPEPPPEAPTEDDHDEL
UniProt P07237, residues 18-508: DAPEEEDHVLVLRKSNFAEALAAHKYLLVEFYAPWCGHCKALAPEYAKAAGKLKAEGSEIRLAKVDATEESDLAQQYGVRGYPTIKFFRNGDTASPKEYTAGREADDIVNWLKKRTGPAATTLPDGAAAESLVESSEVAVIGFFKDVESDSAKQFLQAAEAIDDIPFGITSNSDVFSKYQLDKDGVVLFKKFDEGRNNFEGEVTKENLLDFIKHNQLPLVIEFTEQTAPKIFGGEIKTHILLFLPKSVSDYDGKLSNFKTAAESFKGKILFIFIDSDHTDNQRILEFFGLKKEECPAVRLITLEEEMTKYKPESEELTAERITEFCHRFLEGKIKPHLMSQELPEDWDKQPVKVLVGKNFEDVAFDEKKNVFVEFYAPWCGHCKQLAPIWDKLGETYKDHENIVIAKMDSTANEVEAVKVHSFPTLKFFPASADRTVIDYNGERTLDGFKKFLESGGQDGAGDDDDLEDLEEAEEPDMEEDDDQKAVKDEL
UniProt Q8NBS9, residues 33-432: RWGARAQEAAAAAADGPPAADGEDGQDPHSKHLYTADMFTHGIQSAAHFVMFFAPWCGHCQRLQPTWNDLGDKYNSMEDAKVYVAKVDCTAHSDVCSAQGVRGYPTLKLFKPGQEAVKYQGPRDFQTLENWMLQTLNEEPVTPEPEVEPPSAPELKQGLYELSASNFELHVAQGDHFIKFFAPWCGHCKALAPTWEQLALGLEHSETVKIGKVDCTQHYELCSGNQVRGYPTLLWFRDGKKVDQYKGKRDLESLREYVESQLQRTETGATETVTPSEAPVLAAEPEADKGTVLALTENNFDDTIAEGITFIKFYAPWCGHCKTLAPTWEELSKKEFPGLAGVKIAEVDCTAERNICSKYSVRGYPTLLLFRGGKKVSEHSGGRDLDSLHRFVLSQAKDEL

B1: ER degradation-enhancing alpha-mannosidase-like protein 2 (EDEM2) (enzyme, UniProt Q9BV94 22-578)
chain: APGPDGSAPDPAHYRERVKAMFYHAYDSYLENAFPFDELRPLTCDGHDTWGSFSLTLIDALDTLLILGNVSEFQRVVEVLQDSVDFDIDVNASVFETNIRVVGGLLSAHLLSKKAGVEVEAGWPCSGPLLRMAEEAARKLLPAFQTPTGMPYGTVNLLHGVNPGETPVTCTAGIGTFIVEFATLSSLTGDPVFEDVARVALMRLWESRSDIGLVGNHIDVLTGKWVAQDAGIGAGVDSYFEYLVKGAILLQDKKLMAMFLEYNKAIRNYTRFDDWYLWVQMYKGTVSMPVFQSLEAYWPGLQSLIGDIDNAMRTFLNYYTVWKQFGGLPEFYNIPQGYTVEKREGYPLRPELIESAMYLYRATGDPTLLELGRDAVESIEKISKVECGFATIKDLRDHKLDNRMESFFLAETVKYLYLLFDPTNFIHNNGSTFDAVITPYGECILGAGGYIFNTEAHPIDPAALHCCQRLKEEQWEVEDLMREFYSLKRSRSKFQKNTVSSGPWEPPARPGTLFSPENHDQARERKPAKQKVPLLSCPSQPFTSKLALLGQVFLDSS
B2: ER degradation-enhancing alpha-mannosidase-like protein 3 (EDEM3) (enzyme, UniProt Q9BZQ6 42-932)
chain: EPMSREEKQKLGNQVLEMFDHAYGNYMEHAYPADELMPLTCRGRVRGQEPSRGDVDDALGKFSLTLIDSLDTLVVLNKTKEFEDAVRKVLRDVNLDNDVVVSVFETNIRVLGGLLGGHSLAIMLKEKGEYMQWYNDELLQMAKQLGYKLLPAFNTTSGLPYPRINLKFGIRKPEARTGTETDTCTACAGTLILEFAALSRFTGATIFEEYARKALDFLWEKRQRSSNLVGVTINIHTGDWVRKDSGVGAGIDSYYEYLLKAYVLLGDDSFLERFNTHYDAIMRYISQPPLLLDVHIHKPMLNARTWMDALLAFFPGLQVLKGDIRPAIETHEMLYQVIKKHNFLPEAFTTDFRVHWAQHPLRPEFAESTYFLYKATGDPYYLEVGKTLIENLNKYARVPCGFAAMKDVRTGSHEDRMDSFFLAEMFKYLYLLFADKEDIIFDIEDYIFTTEAHLLPLWLSTTNQSISKKNTTSEYTELDDSNFDWTCPNTQILFPNDPLYAQSIREPLKNVVDKSCPRGIIRVEESFRSGAKPPLRARDFMATNPEHLEILKKMGVSLIHLKDGRVQLVQHAIQAASSIDAEDGLRFMQEMIELSSQQQKEQQLPPRAVQIVSHPFFGRVVLTAGPAQFGLDLSKHKETRGFVASSKPSNGCSELTNPEAVMGKIALIQRGQCMFAEKARNIQNAGAIGGIVIDDNEGSSSDTAPLFQMAGDGKDTDDIKIPMLFLFSKEGSIILDAIREYEEVEVLLSDKAKDRDPEMENEEQPSSENDSQNQSGEQISSSSQEVDLVDQESSEENSLNSHPESLSLADMDNAASISPSEQTSNPTENHETTNLNGECTDLDNQLQEQSETEEDSNPNVSWGKKVQPIDSILADWNEDIEAFEMMEKDEL
B3: Glucosidase 2 subunit alpha (GANAB) (enzyme, UniProt Q14697 29-944)
chain: ITLAVDRSNFKTCEESSFCKRQRSIRPGLSPYRALLDSLQLGPDSLTVHLIHEVTKVLLVLELQGLQKNMTRFRIDELEPRRPRYRVPDVLVADPPIARLSVSGRDENSVELTMAEGPYKIILTARPFRLDLLEDRSLLLSVNARGLLEFEHQRAPRVSQGSKDPAEGDGAQPEETPRDGDKPEETQGKAEKDEPGAWEETFKTHSDSKPYGPMSVGLDFSLPGMEHVYGIPEHADNLRLKVTEGGEPYRLYNLDVFQYELYNPMALYGSVPVLLAHNPHRDLGIFWLNAAETWVDISSNTAGKTLFGKMMDYLQGSGETPQTDVRWMSETGIIDVFLLLGPSISDVFRQYASLTGTQALPPLFSLGYHQSRWNYRDEADVLEVDQGFDDHNLPCDVIWLDIEHADGKRYFTWDPSRFPQPRTMLERLASKRRKLVAIVDPHIKVDSGYRVHEELRNLGLYVKTRDGSDYEGWCWPGSAGYPDFTNPTMRAWWANMFSYDNYEGSAPNLFVWNDMNEPSVFNGPEVTMLKDAQHYGGWEHRDVHNIYGLYVHMATADGLRQRSGGMERPFVLARAFFAGSQRFGAVWTGDNTAEWDHLKISIPMCLSLGLVGLSFCGADVGGFFKNPEPELLVRWYQMGAYQPFFRAHAHLDTGRREPWLLPSQHNDIIRDALGQRYSLLPFWYTLLYQAHREGIPVMRPLWVQYPQDVTTFNIDDQYLLGDALLVHPVSDSGAHGVQVYLPGQGEVWYDIQSYQKHHGPQTLYLPVTLSSIPVFQRGGTIVPRWMRVRRSSECMKDDPITLFVALSPQGTAQGELFLDDGHTFNYQTRQEFLLRRFSFSGNTLVSSSADPEGHFETPIWIERVVIIGAGKPAAVVLQTKGSPESRLSFQHDPETSVLVLRKPGINVASDWSIHLR

Each molecule was assayed against T1, Thioredoxin domain-containing protein 11 (TXNDC11) (human (endogenous; cell line of the immunoprecipitation not named)) (assay: affinity purification with mass spectrometry; endogenous TXNDC11 immunoprecipitated from 1% digitonin lysates of wild-type cells, TXNDC11 knockout cells as control; protein A- or protein G-sepharose, 2 h at 4 °C, three washes in lysis buffer; SDS-PAGE, in-gel digestion, LC-MS/MS).

Row | Molecule | binding
1 | Glucosidase 2 subunit beta (GLU2B) (from UniProt P14314 15-528) | binds
2 | Protein disulphide-isomerase (PDI) (from UniProt P07237 18-508) (enzyme) | binds
3 | Thioredoxin domain-containing protein 5 (TXNDC5) (from UniProt Q8NBS9 33-432) (enzyme) | binds
4 | B1 | binds
5 | B2 | binds
6 | B3 | binds
